Measurements from patent publication WO2008121160A2 (dated 2008).
No constants are given. Whether binding was seen depends on the method and setting. Binding calls can cover weak binding; strength is not graded here.

Experiments:
[1] = target: human CD5 (human); test: flow cytometry, labeled antibody on human PBMCs (leukocytes of lysed blood)
[2] = target: cynomolgus monkey CD5 (cynomolgus monkey); test: flow cytometry, labeled antibody on cynomolgus monkey PBMCs (leukocytes of lysed blood)

binding [1]: binds
binding [2]: binds
B1: murine anti-CD5 antibody 5D7 (antibody, V domains shown)
VH: QVTLKESGPGILKPSQTLSLTCSFSGFSLSTSGMGVGWIRQPSGKGLEWLAHIWWDDDVYYNPSLKNQLTISKDASRDQVFLKITNLDTADTATYYCVRRRATGTGFDYWGQGTTLTVSS
VL: NIVMTQSHKFMSTSVGDRVSIACKASQDVGTAVAWYQQKPGQSPKLLIYWTSTRHTGVPDRFTGSGSGTDFTLTITNVQSEDLADYFCHQYNSYNTFGSGTRLELK
